Data published in the supplement of paper PMC8728848.
This is one part of the list.

Columns and labels:
Experiment in all cases: glycan array binding signal (z-score within array); higher = stronger binding
Conditions in all cases: glycan notation: IUPAC condensed, linker removed
[1] = system: Gal(b1-3)[Fuc(a1-4)]GlcNAc(b1-6)GalNAc
How it was run: (§1)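 Arrays were curated from the Consortium for Functional Glycomics database, 3228 in total, and kept only where the protein sequence was available. Binding is expressed as a within-array Z-score. This score was averaged across arrays of the same protein sequence at different concentrations or buffers and across linkers, and negative values can be read as non-binding.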

[2] = system: Gal(b1-3)[Fuc(a1-4)]GlcNAc
How it was run: as §1

[3] = system: Gal(b1-3)[GlcNAc(b1-6)]GalNAc
How it was run: as §1

[4] = system: Gal(b1-3)[Neu5Ac(a2-6)]GalNAc
How it was run: as §1

[5] = system: Gal(b1-3)[Neu5Ac(a2-6)]GlcNAc(b1-6)Gal(b1-4)Glc
How it was run: as §1

[6] = system: Gal(b1-3)[Neu5Ac(b2-6)]GalNAc
How it was run: as §1

[7] = system: Gal(b1-4)GalNAc(a1-3)[Fuc(a1-2)]Gal(b1-4)GlcNAc
How it was run: as §1

[8] = system: Gal(b1-4)GalNAc(b1-3)[Fuc(a1-2)]Gal(b1-4)GlcNAc
How it was run: as §1

[9] = system: Gal(b1-4)Gal
How it was run: as §1

[10] = system: Gal(b1-4)Glc6S
How it was run: as §1

[11] = system: Gal(b1-4)GlcNAc(a1-6)Gal(b1-4)GlcNAc
How it was run: as §1

[12] = system: Gal(b1-4)GlcNAc(b1-2)Man(a1-3)Man(b1-4)GlcNAc(b1-4)GlcNAc
How it was run: as §1

[13] = system: Gal(b1-4)GlcNAc(b1-2)Man(a1-3)[Gal(b1-4)GlcNAc(b1-2)Man(a1-6)]Man(b1-4)GlcNAc(b1-4)GlcNAc
How it was run: as §1

[14] = system: Gal(b1-4)GlcNAc(b1-2)Man(a1-3)[Gal(b1-4)GlcNAc(b1-2)Man(a1-6)]Man(b1-4)GlcNAc(b1-4)[Fuc(a1-6)]GlcNAc
How it was run: as §1

[15] = system: Gal(b1-4)GlcNAc(b1-2)Man(a1-3)[Gal(b1-4)GlcNAc(b1-2)][GlcNAc(b1-4)]Man(b1-4)GlcNAc(b1-4)GlcNAc
How it was run: as §1

[16] = system: Gal(b1-4)GlcNAc(b1-2)Man(a1-3)[GlcNAc(b1-2)Man(a1-6)]Man(b1-4)GlcNAc(b1-4)GlcNAc
How it was run: as §1

[17] = system: Gal(b1-4)GlcNAc(b1-2)Man(a1-3)[Man(a1-6)]Man(b1-4)GlcNAc(b1-4)GlcNAc
How it was run: as §1

[18] = system: Gal(b1-4)GlcNAc(b1-2)Man(a1-6)Man(b1-4)GlcNAc(b1-4)GlcNAc
How it was run: as §1

[19] = system: Gal(b1-4)GlcNAc(b1-2)Man(a1-6)[GlcNAc(b1-2)Man(a1-3)]Man(b1-4)GlcNAc(b1-4)GlcNAc
How it was run: as §1

[20] = system: Gal(b1-4)GlcNAc(b1-2)Man(a1-6)[Man(a1-3)]Man(b1-4)GlcNAc(b1-4)GlcNAc
How it was run: as §1

[21] = system: Gal(b1-4)GlcNAc(b1-2)Man
How it was run: as §1

[22] = system: Gal(b1-4)GlcNAc(b1-2)[Gal(b1-4)GlcNAc(b1-4)]Man(a1-3)[Gal(b1-4)GlcNAc(b1-2)Man(a1-6)]Man(b1-4)GlcNAc(b1-4)GlcNAc
How it was run: as §1

[23] = system: Gal(b1-4)GlcNAc(b1-2)[Gal(b1-4)GlcNAc(b1-4)]Man(a1-3)[Gal(b1-4)GlcNAc(b1-2)[Gal(b1-4)GlcNAc(b1-6)]Man(a1-6)]Man(b1-4)GlcNAc(b1-4)GlcNAc
How it was run: as §1

[24] = system: Gal(b1-4)GlcNAc(b1-2)[Gal(b1-4)GlcNAc(b1-4)]Man(a1-3)[GlcNAc(b1-4)][Gal(b1-4)GlcNAc(b1-2)Man(a1-6)]Man(b1-4)GlcNAc(b1-4)GlcNAc
How it was run: as §1

[25] = system: Gal(b1-4)GlcNAc(b1-2)[Gal(b1-4)GlcNAc(b1-4)]Man(a1-3)[GlcNAc(b1-4)][Gal(b1-4)GlcNAc(b1-2)[Gal(b1-4)GlcNAc(b1-6)]Man(a1-6)]Man(b1-4)GlcNAc(b1-4)GlcNAc
How it was run: as §1

[26] = system: Gal(b1-4)GlcNAc(b1-2)[Gal(b1-4)GlcNAc(b1-4)]Man(a1-3)[GlcNAc(b1-4)][Gal(b1-4)GlcNAc(b1-2)[Gal(b1-4)GlcNAc(b1-6)]Man(a1-6)]Man(b1-4)GlcNAc(b1-4)[Fuc(a1-6)]GlcNAc
How it was run: as §1

[27] = system: Gal(b1-4)GlcNAc(b1-2)[Gal(b1-4)GlcNAc(b1-6)]Man(a1-6)[Gal(b1-4)GlcNAc(b1-2)Man(a1-3)]Man(b1-4)GlcNAc(b1-4)GlcNAc
How it was run: as §1

[28] = system: Gal(b1-4)GlcNAc(b1-2)[Gal(b1-4)GlcNAc(b1-6)]Man(a1-6)[Gal(b1-4)GlcNAc(b1-2)Man(a1-3)]Man(b1-4)GlcNAc(b1-4)[Fuc(a1-6)]GlcNAc
How it was run: as §1

[29] = system: Gal(b1-4)GlcNAc(b1-2)[Gal(b1-4)GlcNAc(b1-6)]Man(a1-6)[GlcNAc(b1-4)][Gal(b1-4)GlcNAc(b1-2)Man(a1-3)]Man(b1-4)GlcNAc(b1-4)GlcNAc
How it was run: as §1

[30] = system: Gal(b1-4)GlcNAc(b1-3)Gal(b1-3)GlcNAc
How it was run: as §1

[31] = system: Gal(b1-4)GlcNAc(b1-3)Gal(b1-4)GlcNAc(b1-3)Gal(b1-4)GlcNAc
How it was run: as §1

[32] = system: Gal(b1-4)GlcNAc(b1-3)Gal(b1-4)GlcNAc
How it was run: as §1

[33] = system: Gal(b1-4)GlcNAc(b1-3)Gal(b1-4)Glc
How it was run: as §1

[34] = system: Gal(b1-4)GlcNAc(b1-3)Gal(b1-4)[Fuc(a1-3)GlcNAc(b1-6)]Gal(b1-4)Glc
How it was run: as §1

[35] = system: Gal(b1-4)GlcNAc(b1-3)Gal(b1-4)[Fuc(a1-3)]GlcNAc(b1-3)Gal(b1-4)[Fuc(a1-3)]GlcNAc
How it was run: as §1

[36] = system: Gal(b1-4)GlcNAc(b1-3)GalNAc
How it was run: as §1

[37] = system: Gal(b1-4)GlcNAc(b1-3)[Gal(b1-4)GlcNAc(b1-6)]Gal(b1-4)GlcNAc
How it was run: as §1

[38] = system: Gal(b1-4)GlcNAc(b1-3)[Gal(b1-4)GlcNAc(b1-6)]GalNAc
How it was run: as §1

[39] = system: Gal(b1-4)GlcNAc(b1-3)[GlcNAc(b1-6)]Gal(b1-4)GlcNAc
How it was run: as §1

[40] = system: Gal(b1-4)GlcNAc(b1-6)Gal(b1-4)GlcNAc
How it was run: as §1

[41] = system: Gal(b1-4)GlcNAc(b1-6)GalNAc
How it was run: as §1

[42] = system: Gal(b1-4)GlcNAc(b1-6)[Gal(b1-3)]GalNAc
How it was run: as §1

[43] = system: Gal(b1-4)GlcNAc6P
How it was run: as §1

[44] = system: Gal(b1-4)GlcNAc
How it was run: as §1

[45] = system: Gal(b1-4)Glc
How it was run: as §1

[46] = system: Gal(b1-6)Gal
How it was run: as §1

[47] = system: Gal3S(b1-3)GalNAc
How it was run: as §1

[48] = system: Gal3S(b1-3)GlcNAc
How it was run: as §1

[49] = system: Gal3S(b1-3)[Fuc(a1-4)]GlcNAc
How it was run: as §1

[50] = system: Gal3S(b1-4)Glc6S
How it was run: as §1

[51] = system: Gal3S(b1-4)GlcNAc6S
How it was run: as §1

[52] = system: Gal3S(b1-4)GlcNAc
How it was run: as §1

## Wza (Escherichia coli), P0A930
[1]
  glycan array binding signal (z-score): 2.92
[2]
  glycan array binding signal (z-score): 0.48
[3]
  glycan array binding signal (z-score): -0.325
[4]
  glycan array binding signal (z-score): -0.551
[5]
  glycan array binding signal (z-score): 0.8
[6]
  glycan array binding signal (z-score): -0.193
[7]
  glycan array binding signal (z-score): -0.57
[8]
  glycan array binding signal (z-score): -1.67
[9]
  glycan array binding signal (z-score): -0.894
[10]
  glycan array binding signal (z-score): 0.463
[11]
  glycan array binding signal (z-score): -1.08
[12]
  glycan array binding signal (z-score): 0.005
[13]
  glycan array binding signal (z-score): -1.83
[14]
  glycan array binding signal (z-score): -0.063
[15]
  glycan array binding signal (z-score): -1.33
[16]
  glycan array binding signal (z-score): 2.09
[17]
  glycan array binding signal (z-score): -0.371
[18]
  glycan array binding signal (z-score): 1.02
[19]
  glycan array binding signal (z-score): -0.451
[20]
  glycan array binding signal (z-score): -0.746
[21]
  glycan array binding signal (z-score): 1.36
[22]
  glycan array binding signal (z-score): -0.4
[23]
  glycan array binding signal (z-score): -0.468
[24]
  glycan array binding signal (z-score): -1.9
[25]
  glycan array binding signal (z-score): -0.958
[26]
  glycan array binding signal (z-score): -0.703
[27]
  glycan array binding signal (z-score): 0.806
[28]
  glycan array binding signal (z-score): -0.419
[29]
  glycan array binding signal (z-score): -0.843
[30]
  glycan array binding signal (z-score): -1.08
[31]
  glycan array binding signal (z-score): 2.94
[32]
  glycan array binding signal (z-score): 0.363
[33]
  glycan array binding signal (z-score): -0.227
[34]
  glycan array binding signal (z-score): 0.06
[35]
  glycan array binding signal (z-score): -0.657
[36]
  glycan array binding signal (z-score): -0.945
[37]
  glycan array binding signal (z-score): -0.72
[38]
  glycan array binding signal (z-score): 2.12
[39]
  glycan array binding signal (z-score): -0.077
[40]
  glycan array binding signal (z-score): -1.3
[41]
  glycan array binding signal (z-score): 0.1
[42]
  glycan array binding signal (z-score): -0.156
[43]
  glycan array binding signal (z-score): 0.323
[44]
  glycan array binding signal (z-score): -0.625
[45]
  glycan array binding signal (z-score): 2.29
[46]
  glycan array binding signal (z-score): -0.876
[47]
  glycan array binding signal (z-score): 0.611
[48]
  glycan array binding signal (z-score): 0.986
[49]
  glycan array binding signal (z-score): 0.086
[50]
  glycan array binding signal (z-score): 1.37
[51]
  glycan array binding signal (z-score): -0.421
[52]
  glycan array binding signal (z-score): 0.136
